Where a chain is given by its changes, count along the chain named. The exact form of at least one protein or probe is not confirmed. For some assays here: A weaker result is weaker than the reference pair of the same experiment. At least one verdict was read from the data and is not stated in words by the source. Protein sequences can lack the tags named with them.
How the values were obtained:
Test in all cases: FRET
[1] = molecular target: T1, MBP-BFP-TLS-GFP-6xHis (TLS/FUS) (UniProt P35637); settings: recombinant protein; protein details: N-term MBP, TagBFP, C-term TagGFP2, 6xHis
T1 sequence (looked up, limits assumed): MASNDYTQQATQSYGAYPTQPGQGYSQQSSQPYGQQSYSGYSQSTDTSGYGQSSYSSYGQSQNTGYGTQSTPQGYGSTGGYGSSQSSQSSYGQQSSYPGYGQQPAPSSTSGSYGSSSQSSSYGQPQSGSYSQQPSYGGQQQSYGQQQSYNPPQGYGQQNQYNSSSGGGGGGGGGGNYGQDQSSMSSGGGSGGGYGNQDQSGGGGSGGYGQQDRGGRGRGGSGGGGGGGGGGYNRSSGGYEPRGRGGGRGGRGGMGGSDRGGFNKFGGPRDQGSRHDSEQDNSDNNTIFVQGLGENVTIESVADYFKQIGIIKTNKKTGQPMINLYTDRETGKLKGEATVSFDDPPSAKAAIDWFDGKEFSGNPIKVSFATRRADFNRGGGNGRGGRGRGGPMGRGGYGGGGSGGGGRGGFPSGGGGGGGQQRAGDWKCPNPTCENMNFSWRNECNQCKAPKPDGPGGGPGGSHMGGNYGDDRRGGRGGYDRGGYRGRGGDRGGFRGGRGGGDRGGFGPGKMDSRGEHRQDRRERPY

TLS P525L = molecular target: T2, TLS P525L (UniProt P35637); settings: recombinant protein
T2 sequence (looked up, limits assumed): T1 sequence (looked up, limits assumed) with P525L

TLS K510R = molecular target: T3, TLS K510R (UniProt P35637); settings: recombinant protein
T3 sequence (looked up, limits assumed): T1 sequence (looked up, limits assumed) with K510R

AAGGGU [R6 mutant AAGGGU]
binding result [1]: binds more weakly

GAGAGU [R6 mutant GAGAGU]
binding result [1]: binds more weakly

GGUUUGAUGA [R10]
binding result [1]: binds more weakly

GUUAAGA [R7]
binding result [1]: binds more weakly

GUUAAGAGGGUACGGUGGUUUGAUGACACUG [R31 (pncRNA D1-1)]
binding result (TLS P525L): binds
binding result (TLS K510R): binds

UUUUUUUUUUUUU [U13]
binding result [1]: binds more weakly

UUUUUUUUUUUUUUUUUUUUUUUUUUUUUUU [U31]
binding result [1]: binds
